From the supplement of paper PMC12823440, “Inhibitors supercharge kinase turnover through native proteolytic circuits” (Nature, 2025)
Counter-ions that a name gives are not always drawn. This is one part of the list. Hit calls seldom repeat between salt and free forms of one compound.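 Kinases were expressed as nanoluciferase fusions in K562 cells and luminescence was read every 4 h between 2 and 18 h as percent of control, DMSO set to 100% and a positive control to 0%. A time point counts as decreased when the signal drops significantly (2 sigma). The hit call is the authors' own, does not follow from the count of time points alone, and its rule is not shown.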

Sequences of proteins named here, by UniProt entry; tags and fusion partners are left off. A change or cut given only in a name is not applied to a line headed by its entry.
UniProt P07333, whole entry: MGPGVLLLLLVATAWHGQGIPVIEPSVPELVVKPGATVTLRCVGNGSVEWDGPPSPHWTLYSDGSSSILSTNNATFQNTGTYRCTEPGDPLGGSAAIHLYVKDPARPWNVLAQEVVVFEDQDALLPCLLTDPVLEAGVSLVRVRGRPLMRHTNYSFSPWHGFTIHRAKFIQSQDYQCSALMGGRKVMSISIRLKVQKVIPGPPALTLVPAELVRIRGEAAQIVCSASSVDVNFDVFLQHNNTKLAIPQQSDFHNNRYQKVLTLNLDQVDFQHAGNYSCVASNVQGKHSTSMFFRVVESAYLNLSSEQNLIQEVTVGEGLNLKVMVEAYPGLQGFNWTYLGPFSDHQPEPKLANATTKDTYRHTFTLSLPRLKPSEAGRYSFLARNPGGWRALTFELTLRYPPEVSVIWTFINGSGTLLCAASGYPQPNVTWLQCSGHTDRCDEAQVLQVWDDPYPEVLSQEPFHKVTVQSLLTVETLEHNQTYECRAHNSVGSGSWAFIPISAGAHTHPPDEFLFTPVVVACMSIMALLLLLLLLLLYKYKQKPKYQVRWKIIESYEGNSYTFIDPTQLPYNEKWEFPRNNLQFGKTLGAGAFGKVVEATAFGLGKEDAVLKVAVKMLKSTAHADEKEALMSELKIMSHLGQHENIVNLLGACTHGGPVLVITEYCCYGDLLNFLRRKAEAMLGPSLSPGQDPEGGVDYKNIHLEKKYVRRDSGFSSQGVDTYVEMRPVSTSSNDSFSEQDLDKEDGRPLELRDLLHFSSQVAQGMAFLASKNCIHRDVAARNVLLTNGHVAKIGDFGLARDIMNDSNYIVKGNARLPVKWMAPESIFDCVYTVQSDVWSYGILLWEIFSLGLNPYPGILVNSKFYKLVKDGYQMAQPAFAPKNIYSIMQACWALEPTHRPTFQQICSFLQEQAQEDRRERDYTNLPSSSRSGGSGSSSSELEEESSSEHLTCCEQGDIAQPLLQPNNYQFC
UniProt P41240: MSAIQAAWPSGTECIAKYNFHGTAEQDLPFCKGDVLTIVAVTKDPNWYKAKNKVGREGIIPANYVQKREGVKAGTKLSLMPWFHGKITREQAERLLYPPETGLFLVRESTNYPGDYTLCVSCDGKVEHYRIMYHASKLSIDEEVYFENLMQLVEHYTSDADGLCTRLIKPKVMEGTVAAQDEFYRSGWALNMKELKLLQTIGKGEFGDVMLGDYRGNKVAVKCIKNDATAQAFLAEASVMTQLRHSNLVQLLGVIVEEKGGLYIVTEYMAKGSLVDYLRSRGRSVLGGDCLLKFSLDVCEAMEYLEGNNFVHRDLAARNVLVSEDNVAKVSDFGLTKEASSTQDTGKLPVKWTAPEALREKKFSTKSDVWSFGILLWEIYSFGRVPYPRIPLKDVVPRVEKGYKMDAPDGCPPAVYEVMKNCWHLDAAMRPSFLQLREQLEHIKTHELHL

target: CSF1R (UniProt P07333); assay: number of time points (of 5) at which kinase-Nluc abundance scored as decreased, DMSO-normalised (count); higher = more persistent destabilization; conditions: K562; 2-18 h

| Compound | number of time points |
| --- | --- |
| O=c1nc(N2CCOCC2)oc2c(-c3cccc4c3sc3ccccc34)cccc12 (10 µM) | 0 |
| O=C(Nc1cccc(-c2nncn2C2CC2)c1)c1cc(-n2cnc(C3CC3)c2)ccn1 (10 µM) | 0 |
| CSc1ccc(CN2CCCC(Nc3ccc4[nH]ncc4c3)C2)cc1 (stereo unspecified) [Rho-Kinase-IN-1] (10 µM) | 0 |
| Oc1ccccc1C(=S)N1CCCC1 (10 µM) | 0 |
| COC(=O)N[C@@H](C)CNc1nccc(-c2cn(C(C)C)nc2-c2cc(Cl)cc(NS(C)(=O)=O)c2F)n1 [Encorafenib] (10 µM) | 0 |
| C=CS(=O)(=O)c1ccc(Nc2nc(OCC3CCCCC3)c3[nH]cnc3n2)cc1 (2.5 µM) | 0 |
| O=c1[nH]ccc2cc(OC3CCNCC3)ccc12 (10 µM) | 0 |

target: CSK (UniProt P41240); assay: as above; conditions: K562; 2-18 h

| Compound | number of time points |
| --- | --- |
| O=C1NC(=O)C(c2cn(-c3ccccc3)nc2-c2ccc(F)cc2)N1 (stereo unspecified) (10 µM) | 0 |
| O=[N+]([O-])c1ccc(Sc2cccc[n+]2[O-])c2nonc12 (2.5 µM) | 0 |
| COc1nc(-c2ccnc(NC(=O)C3CC3)c2)sc1C(N)=O [GSK-3β inhibitor 2] (10 µM) | 0 |
| CCN1/C(=C/C(C)=O)Sc2ccc(OC)cc21 (10 µM) | 0 |
| Nc1cccc(S(=O)(=O)N2CCCN(S(=O)(=O)c3ccc4c(c3)OCCO4)CC2)c1 (10 µM) | 0 |
| Nc1ncc(-c2ccc(C(=O)N3CCNCC3)cc2)nc1-c1ccc(C(F)(F)F)cc1 (10 µM) | 0 |
| CC[C@H](Nc1ncnc2[nH]cnc12)c1oc2ccccc2c(=O)c1-c1cccc(F)c1 [Tenalisib] (10 µM) | 0 |
| CC(C)(O)[C@@H]1CC[C@](C)([C@H]2[C@@H](O)C[C@@]3(C)[C@@H]4C[C@H](O[C@@H]5O[C@H](CO)[C@@H](O)[C@H](O)[C@H]5O)[C@H]5C(C)(C)[C@@H](O[C@@H]6OC[C@@H](O)[C@H](O)[C@H]6O[C@@H]6O[C@H](CO)[C@@H](O)[C@H](O)[C@H]6O)CC[C@@]56C[C@@]46CC[C@]23C)O1 [Astragaloside VI] (10 µM) | 0 |
| CC(=O)Nc1nc2ccc(-c3cnc(C)c(NC(=O)OC4CCCCC4)c3)cc2s1 (10 µM) | 0 |
| COc1ccccc1/C=C1\C(=O)Nc2ccccc21 (10 µM) | 0 |
| CC1(N)CCN(c2cnc3c(-c4cccc(Cl)c4Cl)[nH]nc3n2)CC1 (2.5 µM) | 0 |
| CC(C)C[C@H](NC(=O)[C@H](CCCCN)NC(=O)[C@H](CO)NC(=O)[C@@H](N)CC(C)C)C(N)=O [LSKL, Inhibitor of Thrombospondin (TSP-1) (TFA)] (10 µM) | 0 |
| CN1CC[C@H](c2c(O)cc(O)c3c(=O)cc(-c4ccc(C(F)(F)F)cc4Cl)oc23)[C@H]1CO [(2S,3R)-Voruciclib (hydrochloride)] (2.5 µM) | 0 |
| C[C@H]1[C@H](OC(=O)CCC(=O)O)O[C@@H]2O[C@@]3(C)CC[C@H]4[C@H](C)CC[C@@H]1[C@@]24OO3 [Artesunate] (2.5 µM) | 0 |
| c1ccc(-c2nn3c(c2-c2ccnc4cc(OCCN5CCOCC5)ccc24)CCC3)nc1 (10 µM) | 0 |
| COc1cc(N2CCC(N(C)C)CC2)ccc1Nc1ncc(Cl)c(Nc2ccccc2P(C)(C)=O)n1 (2.5 µM) | 0 |
| Cc1ccc(-c2ncn(-c3ccc(Nc4nccc(-c5cccc(N6CCOCC6)c5)n4)cc3)n2)cn1 (10 µM) | 0 |
| CC[C@@H]1[C@H](F)C(=O)N[C@@H]1COc1nccc2cc(C(N)=O)c(OC)cc12 (10 µM) | 0 |
| O=C1NC(=O)/C(=C/c2ccc(-c3ccc(F)cc3O)o2)S1 (10 µM) | 0 |
| Cc1cc(Nc2cc(CN3CCOCC3)c3nc(C)c(Cc4ccc(Cl)cc4F)n3n2)n[nH]1 [Gandotinib] (2.5 µM) | 0 |
| CN(C)C(=O)c1ccc(S(=O)(=O)c2ccc(NC(=O)[C@@](C)(O)C(F)(F)F)c(Cl)c2)cc1 (10 µM) | 0 |
| CCc1cccc(CC)c1NC(=O)c1nn(C)c2c1CCc1cnc(Nc3ccc(C(=O)NC4CCN(C)CC4)cc3OC(F)(F)F)nc1-2 (2 µM) | 0 |
| O=C(Nc1ccc(Cl)cc1)C1CCCN(C(=O)c2cccc(-c3ccco3)c2)C1 (stereo unspecified) (2.5 µM) | 0 |
| CN(C)Cc1cccc(N=C(c2ccccc2)c2c(O)[nH]c3cc(C(=O)N(C)C)ccc23)c1 (10 µM) | 0 |

Looked up by compound from the list above (2):

| Compound | number of time points |
| --- | --- |
| CN1CC[C@H](c2c(O)cc(O)c3c(=O)cc(-c4ccc(C(F)(F)F)cc4Cl)oc23)[C@H]1CO [(2S,3R)-Voruciclib (hydrochloride)] (2.5 µM) | 0 |
| CCc1cccc(CC)c1NC(=O)c1nn(C)c2c1CCc1cnc(Nc3ccc(C(=O)NC4CCN(C)CC4)cc3OC(F)(F)F)nc1-2 (2 µM) | 0 |
